Assay results reported in doi:10.1101/2022.12.21.521400.
Like-named read-outs stand apart in the source and are kept apart here. These are yes or no findings as the source states them, for the method shown. In cells and extracts the contact can be indirect. Some binding calls cover weakened binding; strength is not graded here.

The chains behind the UniProt entries cited, without tags or fusion partners.
UniProt Q8TDX7: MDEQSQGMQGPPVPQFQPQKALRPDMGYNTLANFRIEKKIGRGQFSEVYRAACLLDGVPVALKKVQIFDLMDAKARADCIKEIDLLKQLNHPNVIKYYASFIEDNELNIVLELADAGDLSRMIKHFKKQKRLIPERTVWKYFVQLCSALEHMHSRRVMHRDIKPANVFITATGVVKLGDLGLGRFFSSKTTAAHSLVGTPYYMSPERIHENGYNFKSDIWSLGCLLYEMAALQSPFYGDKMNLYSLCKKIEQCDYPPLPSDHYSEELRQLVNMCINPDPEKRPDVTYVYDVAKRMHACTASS
UniProt Q9ULZ3: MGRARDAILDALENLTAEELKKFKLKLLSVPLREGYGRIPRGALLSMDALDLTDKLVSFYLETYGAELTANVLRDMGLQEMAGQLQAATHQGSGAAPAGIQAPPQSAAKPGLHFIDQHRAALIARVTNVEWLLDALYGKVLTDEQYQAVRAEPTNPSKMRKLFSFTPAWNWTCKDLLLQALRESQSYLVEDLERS

What was measured:
Assay in all cases: co-IP
[1] = target: T1, NLRP1 (human (endogenous in THP-1)) (UniProt Q9C000)
T1 sequence: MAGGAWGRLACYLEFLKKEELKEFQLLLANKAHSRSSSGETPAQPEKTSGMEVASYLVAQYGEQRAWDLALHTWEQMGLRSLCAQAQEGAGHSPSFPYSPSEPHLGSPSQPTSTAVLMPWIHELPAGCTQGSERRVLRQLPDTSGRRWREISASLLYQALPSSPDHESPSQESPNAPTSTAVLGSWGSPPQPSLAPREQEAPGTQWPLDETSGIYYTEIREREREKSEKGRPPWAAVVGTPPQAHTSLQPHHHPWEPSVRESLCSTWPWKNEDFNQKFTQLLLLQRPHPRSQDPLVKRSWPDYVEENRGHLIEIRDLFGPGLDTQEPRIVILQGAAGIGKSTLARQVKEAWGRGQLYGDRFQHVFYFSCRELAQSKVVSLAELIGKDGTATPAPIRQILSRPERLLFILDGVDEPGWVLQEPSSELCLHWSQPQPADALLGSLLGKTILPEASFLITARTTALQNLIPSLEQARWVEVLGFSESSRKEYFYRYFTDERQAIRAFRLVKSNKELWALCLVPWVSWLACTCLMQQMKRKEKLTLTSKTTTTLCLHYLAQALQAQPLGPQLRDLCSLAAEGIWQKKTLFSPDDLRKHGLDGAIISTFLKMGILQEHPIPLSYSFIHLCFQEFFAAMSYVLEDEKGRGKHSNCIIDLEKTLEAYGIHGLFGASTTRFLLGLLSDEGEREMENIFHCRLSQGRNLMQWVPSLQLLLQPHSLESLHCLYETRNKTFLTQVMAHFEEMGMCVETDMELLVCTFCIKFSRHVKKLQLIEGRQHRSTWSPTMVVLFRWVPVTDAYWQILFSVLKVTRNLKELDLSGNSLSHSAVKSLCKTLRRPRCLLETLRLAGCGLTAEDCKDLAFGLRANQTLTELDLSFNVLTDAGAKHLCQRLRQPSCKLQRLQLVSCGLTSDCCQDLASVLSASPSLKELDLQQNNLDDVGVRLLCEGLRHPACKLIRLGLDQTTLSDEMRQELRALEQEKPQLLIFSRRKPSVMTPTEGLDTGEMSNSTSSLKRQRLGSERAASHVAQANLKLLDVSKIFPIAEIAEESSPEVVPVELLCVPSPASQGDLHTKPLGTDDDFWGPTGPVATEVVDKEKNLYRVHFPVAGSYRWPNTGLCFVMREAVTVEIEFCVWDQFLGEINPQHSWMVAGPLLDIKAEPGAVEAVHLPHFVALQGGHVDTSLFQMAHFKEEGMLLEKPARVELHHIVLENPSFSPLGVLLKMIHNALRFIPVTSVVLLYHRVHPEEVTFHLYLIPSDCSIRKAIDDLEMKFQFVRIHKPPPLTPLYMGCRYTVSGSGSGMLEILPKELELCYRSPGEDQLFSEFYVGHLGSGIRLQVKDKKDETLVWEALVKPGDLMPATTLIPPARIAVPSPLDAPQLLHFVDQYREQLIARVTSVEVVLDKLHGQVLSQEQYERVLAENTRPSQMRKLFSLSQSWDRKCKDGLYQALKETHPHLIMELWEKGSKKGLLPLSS

[2] = target: NEK7 (human (endogenous in THP-1)) (UniProt Q8TDX7)
[3] = target: NEK7 (human (endogenous in THP-1)) (UniProt Q8TDX7); remark: listed apart in the source

For ASC (from UniProt Q9ULZ3 1-195), the binding [1] was “binds” and the binding [2] was “binds”.

B1: NLRP1 (protein, UniProt Q9C000 1-1473)
chain: MAGGAWGRLACYLEFLKKEELKEFQLLLANKAHSRSSSGETPAQPEKTSGMEVASYLVAQYGEQRAWDLALHTWEQMGLRSLCAQAQEGAGHSPSFPYSPSEPHLGSPSQPTSTAVLMPWIHELPAGCTQGSERRVLRQLPDTSGRRWREISASLLYQALPSSPDHESPSQESPNAPTSTAVLGSWGSPPQPSLAPREQEAPGTQWPLDETSGIYYTEIREREREKSEKGRPPWAAVVGTPPQAHTSLQPHHHPWEPSVRESLCSTWPWKNEDFNQKFTQLLLLQRPHPRSQDPLVKRSWPDYVEENRGHLIEIRDLFGPGLDTQEPRIVILQGAAGIGKSTLARQVKEAWGRGQLYGDRFQHVFYFSCRELAQSKVVSLAELIGKDGTATPAPIRQILSRPERLLFILDGVDEPGWVLQEPSSELCLHWSQPQPADALLGSLLGKTILPEASFLITARTTALQNLIPSLEQARWVEVLGFSESSRKEYFYRYFTDERQAIRAFRLVKSNKELWALCLVPWVSWLACTCLMQQMKRKEKLTLTSKTTTTLCLHYLAQALQAQPLGPQLRDLCSLAAEGIWQKKTLFSPDDLRKHGLDGAIISTFLKMGILQEHPIPLSYSFIHLCFQEFFAAMSYVLEDEKGRGKHSNCIIDLEKTLEAYGIHGLFGASTTRFLLGLLSDEGEREMENIFHCRLSQGRNLMQWVPSLQLLLQPHSLESLHCLYETRNKTFLTQVMAHFEEMGMCVETDMELLVCTFCIKFSRHVKKLQLIEGRQHRSTWSPTMVVLFRWVPVTDAYWQILFSVLKVTRNLKELDLSGNSLSHSAVKSLCKTLRRPRCLLETLRLAGCGLTAEDCKDLAFGLRANQTLTELDLSFNVLTDAGAKHLCQRLRQPSCKLQRLQLVSCGLTSDCCQDLASVLSASPSLKELDLQQNNLDDVGVRLLCEGLRHPACKLIRLGLDQTTLSDEMRQELRALEQEKPQLLIFSRRKPSVMTPTEGLDTGEMSNSTSSLKRQRLGSERAASHVAQANLKLLDVSKIFPIAEIAEESSPEVVPVELLCVPSPASQGDLHTKPLGTDDDFWGPTGPVATEVVDKEKNLYRVHFPVAGSYRWPNTGLCFVMREAVTVEIEFCVWDQFLGEINPQHSWMVAGPLLDIKAEPGAVEAVHLPHFVALQGGHVDTSLFQMAHFKEEGMLLEKPARVELHHIVLENPSFSPLGVLLKMIHNALRFIPVTSVVLLYHRVHPEEVTFHLYLIPSDCSIRKAIDDLEMKFQFVRIHKPPPLTPLYMGCRYTVSGSGSGMLEILPKELELCYRSPGEDQLFSEFYVGHLGSGIRLQVKDKKDETLVWEALVKPGDLMPATTLIPPARIAVPSPLDAPQLLHFVDQYREQLIARVTSVEVVLDKLHGQVLSQEQYERVLAENTRPSQMRKLFSLSQSWDRKCKDGLYQALKETHPHLIMELWEKGSKKGLLPLSS
B1 was tested, and the binding [2] was “binds” and the binding [3] was “binds”.

B2: NLRP10 (protein, UniProt Q86W26 1-655)
chain: MAMAKARKPREALLWALSDLEENDFKKLKFYLRDMTLSEGQPPLARGELEGLIPVDLAELLISKYGEKEAVKVVLKGLKVMNLLELVDQLSHICLHDYREVYREHVRCLEEWQEAGVNGRYNQVLLVAKPSSESPESLACPFPEQELESVTVEALFDSGEKPSLAPSLVVLQGSAGTGKTTLARKMVLDWATGTLYPGRFDYVFYVSCKEVVLLLESKLEQLLFWCCGDNQAPVTEILRQPERLLFILDGFDELQRPFEEKLKKRGLSPKESLLHLLIRRHTLPTCSLLITTRPLALRNLEPLLKQARHVHILGFSEEERARYFSSYFTDEKQADRAFDIVQKNDILYKACQVPGICWVVCSWLQGQMERGKVVLETPRNSTDIFMAYVSTFLPPDDDGGCSELSRHRVLRSLCSLAAEGIQHQRFLFEEAELRKHNLDGPRLAAFLSSNDYQLGLAIKKFYSFRHISFQDFFHAMSYLVKEDQSRLGKESRREVQRLLEVKEQEGNDEMTLTMQFLLDISKKDSFSNLELKFCFRISPCLAQDLKHFKEQMESMKHNRTWDLEFSLYEAKIKNLVKGIQMNNVSFKIKHSNEKKSQSQNLFSVKSSLSHGPKEEQKCPSVHGQKEGKDNIAGTQKEASTGKGRGTEETPKNTYI
For B2, the binding [3] was “no binding”.
